The list shows a part of the results, in another mix than the full data. Most values lie at the level of the controls, where differences are scatter.
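Further: lysate desalted by size exclusion to strip endogenous ATP, peptide intensities built from DIA-NN precursor signals, and peptides missing any value discarded before comparison.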

The chains behind the UniProt entries cited, without tags or fusion partners. Where a name states a change or a piece, a line headed by the entry shows the natural chain unless it says otherwise.
UniProt P0ADD5: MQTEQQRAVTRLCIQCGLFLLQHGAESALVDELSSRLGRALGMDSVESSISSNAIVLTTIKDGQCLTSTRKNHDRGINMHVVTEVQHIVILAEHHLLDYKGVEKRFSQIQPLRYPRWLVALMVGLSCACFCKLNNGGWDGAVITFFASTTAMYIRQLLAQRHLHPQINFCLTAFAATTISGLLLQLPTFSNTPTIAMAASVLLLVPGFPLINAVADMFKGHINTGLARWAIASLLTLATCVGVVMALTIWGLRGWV

For this test, the target named is UniProt P0ADD5. Description: log2 fold change of tryptic peptide abundance, ligand vs vehicle (limited proteolysis) (log2 ratio); higher = more trypsin-susceptible (destabilized). Conditions: peptide sequence: FSQIQPLRYPR; peptide start residue: 106; ligand concentration: 5 mM; sample: E. coli desalted lysate; replicate design: treated before aliquoting. The protocol: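 HT-PELSA: desalted E. coli K-12 BW25113 lysate (with 12 mM MgCl2) incubated with 5 mM ATP (pH 7) or water for 30 min at 25 C, then a 4 min trypsin pulse at 22 C. Peptides were quantified by DIA-MS (4 replicates). Value is the peptide log2 fold change (treated/control); negative = stabilized. Scale: negative = ligand-stabilized region.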
With `Nc1ncnc2c1ncn2[C@@H]1O[C@H](COP(=O)(O)OP(=O)(O)OP(=O)(O)O)[C@@H](O)[C@H]1O` [adenosine 5'-triphosphate], the log2 fold change stood at 0.187.
